The text below walks through data of paper PMC5996148.

Values joined by “and” are separate entries in the source; they are usually repeats but may differ in a detail not shown here. Equal entries are not always repeated. This is one part of the list.

Some test systems named below: Protein BEAN (human); Protein BEX5 (human); Protein CBFA2T1 (human); Protein DGCR6L (human); Protein Dr1 (human); Protein FAM63B (human); Protein NOXP20 (human); Protein Niban (human); Protein OSCP1 (human); Protein PPRC1 (human).
Assay in all cases: protein microarray (ProtoArray v5.0), streptavidin-Alexa Fluor 647
Holding throughout (conditions): 3'-biotin; 20 mM Tris (pH 7.5), 5 mM MgCl2, 100 mM KCl, 0.1% Tween-20, A/T-rich and random oligonucleotide blockers; temperature not stated; high values mean tight binding

For the sequence “GGGGACAGGGGTATGGGGAGGGG [G4-3 biotinylated (CtG)]”, the binding signal in the assay with Protein BEAN (human) was -0.313 z-score; in the assay with Protein BEX5 (human), -0.341 z-score; in the assay on Protein CBFA2T1 (human) it was -0.325 z-score; in the assay on Protein DGCR6L (human), -0.344 z-score; with Protein Dr1 (human), -0.303 z-score; in the assay on Protein FAM63B (human) it was -0.326 z-score. The binding signal in the assay with Protein NOXP20 (human) is -0.332 z-score; with Protein Niban (human) it was -0.319 z-score; in the assay on Protein OSCP1 (human), -0.331 z-score; in the assay on Protein PPRC1 (human) it was -0.334 z-score and -0.342 z-score.
